The values below come from paper PMC7819943, “Rice protein-binding microarrays: a tool to detect cis-acting elements near promoter regions in rice”.

Chains of the proteins cited; added tags and fusions are not shown.
UniProt Q0JBA9, entry or part of it: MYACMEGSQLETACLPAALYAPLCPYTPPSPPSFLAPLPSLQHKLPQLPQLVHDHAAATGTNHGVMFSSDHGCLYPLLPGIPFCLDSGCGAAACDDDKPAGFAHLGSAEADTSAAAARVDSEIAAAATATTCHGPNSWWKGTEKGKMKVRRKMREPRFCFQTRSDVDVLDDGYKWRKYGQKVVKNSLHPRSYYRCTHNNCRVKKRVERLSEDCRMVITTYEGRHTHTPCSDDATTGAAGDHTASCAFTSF

This is one part of the list.

This experiment has as its target OsWRKY34 (Oryza sativa, UniProt Q0JBA9 1-250). Nature of the experiment: protein-binding microarray (RPBM); PBS, 2% BSA, 51.3 ng/ul salmon testes DNA, 50 uM zinc acetate, 200 nM TF, 25 C, 1 h; high values mean tight binding. As to conditions: protein: recombinant; tags: N-terminal polyhistidine and DsRed monomer fusion (pET32a); label: CyDye5-dUTP incorporated in the synthesized complementary strand; 3' TTTTT single-stranded linker to array surface; dsDNA, one strand shown. The essentials: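 A custom Agilent array was converted to double-stranded form by primer extension with Cy5-dUTP and blocked with 2% BSA. Protein at 200 nM in PBS with 2% BSA, salmon testes DNA and 50 µM zinc acetate was applied for 1 h at 25 °C, followed by washing. The proteins were polyhistidine–DsRed N-terminal fusions of transcription factors, expressed in E. coli BL21-CodonPlus and Ni–NTA-purified. The binding signal is per-feature fluorescence intensity (arbitrary units) from an Axon 4000B scanner.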
For “ACTAATTCGCCTACGACTTCTCACACACAAAGCTTCCCTTCGGAGTCACCTAGTGCAG”, the binding signal is 8570 fluorescence intensity (a.u.).

Regarding “CCTTGGGCCAATTCCATACCCTCATGTAAGCCCATTCACTCGGAGTCACCTAGTGCAG”, the binding signal is 9300 fluorescence intensity (a.u.).

As for “TGGTGGTCGGCATCGTTGAGTGGTGTGGGATGAGAAGCGGCGGAGTCACCTAGTGCAG”, the binding signal is 9030 fluorescence intensity (a.u.).

With “CACTTACTGACGTAAACAGCAGAATATTTCCTGTGTATTGCGGAGTCACCTAGTGCAG”, the binding signal was 8160 fluorescence intensity (a.u.).

On to “ACTGTCTCGTATTCTATTCCTCATTCCTTCTCTTTTTTTCCGGAGTCACCTAGTGCAG”, for which the binding signal was 19600 fluorescence intensity (a.u.).

In the case of “ACACACGTCGTTATGTTGATTTTATTATATTTTTAAAAAACGGAGTCACCTAGTGCAG”, the binding signal is 8450 fluorescence intensity (a.u.).

In the case of “TCTCCCATCTATCCTCTGTGCATTCCGCTTTACTGCTCTCCGGAGTCACCTAGTGCAG”, the binding signal is 8450 fluorescence intensity (a.u.).

For “CTCTGTTCCGTTCACTTTACGCATCTCAACCTATCGCTGTCGGAGTCACCTAGTGCAG”, the binding signal is 11900 fluorescence intensity (a.u.).

Turning to “TTAGATCAATTTTGCATGTGTGTTGTTTTGTACTAGGTTCCGGAGTCACCTAGTGCAG”, the binding signal is 9600 fluorescence intensity (a.u.).

“ACGCACTTGACCCCTTCGTTACCCTAAATCCTAATGCCGTCGGAGTCACCTAGTGCAG”: the binding signal was 8620 fluorescence intensity (a.u.).

As to “GCGGGTGGGTGGCAGGGTGGGTATACGTACACGTCTCCGACGGAGTCACCTAGTGCAG”, the binding signal was 15800 fluorescence intensity (a.u.).

Consider “CTGTTACCATCCATGTTTCAATTCCTTAGCATGTCACCCTCGGAGTCACCTAGTGCAG”, for which the binding signal was 8110 fluorescence intensity (a.u.).

For “GCTCGTTGTCATGCTCTCCCATTCCATGGCTCCATCCATTCGGAGTCACCTAGTGCAG”, the binding signal was 12400 fluorescence intensity (a.u.).

With “GCCAATCTTCTTTGCAGTTTGCATTACCATGCAACTCACCCGGAGTCACCTAGTGCAG”, the binding signal was 8560 fluorescence intensity (a.u.).

Take “ATATTACTGGTGTTTACTTGCTTTTCTTTTTTTAAAAAAACGGAGTCACCTAGTGCAG”: the binding signal is 9160 fluorescence intensity (a.u.).

As to “CTTATCTTTCTTTATGTTGTTGCTACGAAGGTATAGACTTCGGAGTCACCTAGTGCAG”, the binding signal is 9340 fluorescence intensity (a.u.).

For “GTTGGGAGGAGGGCAAGGTGCTTAGGGTTTTACATTTCACCGGAGTCACCTAGTGCAG”, the binding signal was 10600 fluorescence intensity (a.u.).

Regarding “TGATGTTGTATTCCGAGGAAGACCACCTTCAATTGCTTCACGGAGTCACCTAGTGCAG”, the binding signal was 8260 fluorescence intensity (a.u.).

Regarding “CTCATCAGTGATGAGGCCTTCAACAATCCATCGTCTTACTCGGAGTCACCTAGTGCAG”, the binding signal is 8230 fluorescence intensity (a.u.).

On to “GTCCACGTTGCCCATCTTCTCGTGTACTACTCTGGCTGGCCGGAGTCACCTAGTGCAG”, for which the binding signal is 8860 fluorescence intensity (a.u.).

Turning to “TTCTCATCTCAATCCCATATTCCCATCCTTATCTTCGGTTCGGAGTCACCTAGTGCAG”, the binding signal is 8900 fluorescence intensity (a.u.).

As to “CTTTGTTGCACTTTTTCGTATTGGAGTGTTTTATTCTTTCCGGAGTCACCTAGTGCAG”, the binding signal was 8760 fluorescence intensity (a.u.).

Regarding “TTTATACCAAAGGCCATTTTCTGTTGCATTGAGTGGTTGCCGGAGTCACCTAGTGCAG”, the binding signal was 9400 fluorescence intensity (a.u.).

As for “GCGCTAGAGTCCTTACTAAATTTTGCAGTTCTAGAAGCTTCGGAGTCACCTAGTGCAG”, the binding signal was 9350 fluorescence intensity (a.u.).

With “AAGCTATGATACATATTACTCTTTTACGGTTCTACTATAGCGGAGTCACCTAGTGCAG”, the binding signal is 8670 fluorescence intensity (a.u.).

For the sequence “ACTGTATCATCATTGATTTGTGTTGATGTTCTTACTTATACGGAGTCACCTAGTGCAG”, the binding signal is 8490 fluorescence intensity (a.u.).

“TTCGTTCGTCCCACCGCTGCTGCATGCCATCCCTGACACCCGGAGTCACCTAGTGCAG”: the binding signal is 10100 fluorescence intensity (a.u.).

Regarding “TCTTCGTAATGTTTTTCTCCTTCTCCATGTGGGCGCCCATCGGAGTCACCTAGTGCAG”, the binding signal is 9620 fluorescence intensity (a.u.).

For “GGAGTTGACTCATTTTCTTTATCTTCTTTCTACCCTTTTTCGGAGTCACCTAGTGCAG”, the binding signal is 10600 fluorescence intensity (a.u.).

In the case of “ACTATTTCGCTATTTCAAGTCATTTTTATACTTTCCAATTCGGAGTCACCTAGTGCAG”, the binding signal was 10500 fluorescence intensity (a.u.).

With “GTGTTTTGACGCATGCATGCCGTTGGTCATCAGTTAATCACGGAGTCACCTAGTGCAG”, the binding signal was 8770 fluorescence intensity (a.u.).

As for “CTTCTTGATACTGACTCACAATCTGTTCGAACAAACTCTCCGGAGTCACCTAGTGCAG”, the binding signal was 8610 fluorescence intensity (a.u.).

With “CCATGTCCGCCACAACTCGCAACATGTACTCCATACGTCCCGGAGTCACCTAGTGCAG”, the binding signal was 9290 fluorescence intensity (a.u.).

As to “ATGTTGATATTGTGGTTGGTTGTGGGCATGTTACATTTTCCGGAGTCACCTAGTGCAG”, the binding signal was 11500 fluorescence intensity (a.u.).

In the case of “GGGCAAGCATCCAACACTCTTAGTTCCCATTGCTCACATTCGGAGTCACCTAGTGCAG”, the binding signal was 12500 fluorescence intensity (a.u.).

As to “GTGGGGATTGGGGATCGGAGAGAAGGGGAAATTTTGGACGCGGAGTCACCTAGTGCAG”, the binding signal was 9300 fluorescence intensity (a.u.).

As for “CTGTGTCTTTCGTTTTTCTTTTTTAAAAAAACACATGCTACGGAGTCACCTAGTGCAG”, the binding signal was 9680 fluorescence intensity (a.u.).

Turning to “ACATTTTAAGTTTTTTATACTATGCATATTGTTTTAGTGCCGGAGTCACCTAGTGCAG”, the binding signal was 8400 fluorescence intensity (a.u.).

Take “CGATGCTTCGATCCCGCGCCGACCTCGATCCGCATTAACTCGGAGTCACCTAGTGCAG”: the binding signal is 8490 fluorescence intensity (a.u.).

With “CGTGAGTGCTGCCCACTTATTTTTCCTTTACGCAACAACACGGAGTCACCTAGTGCAG”, the binding signal is 9110 fluorescence intensity (a.u.).

“TCAACAAATAGTTTCACTCATCACTCATTAACTCATTCTTCGGAGTCACCTAGTGCAG”: the binding signal is 8300 fluorescence intensity (a.u.).

With “ACAACTTTCCCATTTGAAATCATTTACTACCCGAAAAATTCGGAGTCACCTAGTGCAG”, the binding signal was 8090 fluorescence intensity (a.u.).

With “CCTTCCTACGTGGCCTCCGGCCCCACCTCCCGCCCGTTGCCGGAGTCACCTAGTGCAG”, the binding signal is 8620 fluorescence intensity (a.u.).

Turning to “AATCCGCATCATCAGAAGAATATGATATATTCTGTCAAACCGGAGTCACCTAGTGCAG”, the binding signal was 8880 fluorescence intensity (a.u.).

On to “TTTCTCAACTTTTTCTTAATGTTCTCGTGTTTTATTTCCGCGGAGTCACCTAGTGCAG”, for which the binding signal was 12200 fluorescence intensity (a.u.).

Consider “TCTGATTTGCTTCCTCCGCGAACCGGTCGTCTTCTCCAGCCGGAGTCACCTAGTGCAG”, for which the binding signal is 8780 fluorescence intensity (a.u.).

For “ACCCCATCGGCCATATGCTCATTTCCTAGCTGATATTGCACGGAGTCACCTAGTGCAG”, the binding signal was 12400 fluorescence intensity (a.u.).

“AGTTCCTGCCTAATTGACTTACGCTGACTCTGTCAATATCCGGAGTCACCTAGTGCAG”: the binding signal is 8710 fluorescence intensity (a.u.).

As to “TCTCTGCTTCTCGTTGTTCTTGGTTGGTTGTTGTTGTAGACGGAGTCACCTAGTGCAG”, the binding signal was 19400 fluorescence intensity (a.u.).

As to “GTACGTGCTTGTGGCTTATTGGGCCTGGTCCTGATTGGACCGGAGTCACCTAGTGCAG”, the binding signal was 11100 fluorescence intensity (a.u.).

“GGTGGTGGTGGTGGTGGATCGGGTGGCTTTGGCTGAGATGCGGAGTCACCTAGTGCAG”: the binding signal is 18100 fluorescence intensity (a.u.).

“ATATGTAATTTGTTTTGTTTTAGTCTACGTTTAATAGTTCCGGAGTCACCTAGTGCAG”: the binding signal is 8250 fluorescence intensity (a.u.).

With “TGATGCCGGATTGCCAATGGGGTTGGGTTGGTCTGAATGACGGAGTCACCTAGTGCAG”, the binding signal was 10700 fluorescence intensity (a.u.).

Take “TTTCAGCTCCATCAAGGTGTTCTCCACCATTGACATCTCCCGGAGTCACCTAGTGCAG”: the binding signal is 8140 fluorescence intensity (a.u.).
